Measurements reported in patent US9730928B2, “Trizol-1-OL analogs anti-retroviral latency drugs” (priority 2013, dated 2017).
Entries after “also recorded” stand apart in the source; their conditions may differ.

Key:
latent HIV-1 = test: Reactivation of latent HIV-1 in latently infected cultured TCM (GFP / p24Gag by flow cytometry); format: cell-based; conditions: panel of 7 derivatives of HOBt (FIG. 2D)
Source text: A novel primary cell model for the study of HIV-1 latency was adapted so as to be suitable for high-throughput screening (HTS) of new compounds that may reactivate HIV-1 from its latency state (Bosque and Planelles, 2009; Bosque and Planelles, 2010; and patent application: Methods and compositions relating to viral latency, Planelles V, Basque A, U.S. Patent Application 2010/0291067 A1, November 2010).
To facilitate HTS, the nef gene was replaced with that encoding the green fluorescent protein (GFP). It was confirmed that deletion of nef has no effect in latency/reactivation (Bosque and Planelles, 2009) and that using GFP provides a faster, more economical, and equally sensitive, as compared to intracellular p24 detection, readout.
The reactivation experiments were modified to be performed in 96-well plates, utilizing 100,000 cells per well. […] Analysis for each well includes (a) green fluorescence as a direct indicator of viral reactivation; and (b) forward and side scatter as general measures of cell morphology, which is a gross indication of viability.
Latently infected cells were generated using healthy, uninfected DONOR 78 cells that were infected with DHIV virus. Reactivation was monitored by analysis of GFP by Flow Cytometry 72 hours after stimulation. […]

pSTAT5 = pSTAT5 levels 48 h after IL-2 plus derivatives, flow cytometer; format: cell-based; conditions: with IL-2, 48 h
Description: Cells were treated with IL-2 and several derivatives of HOAt. Levels of pSTAT5 were measured 48 h later by flow cytometer.

CN(C)C(n1n[n+]([O-])c2ncccc21)=[N+](C)C.F[P-](F)(F)(F)(F)F [HATU]
ability to induce viral reactivation compared to the original hit HOBt (latent HIV-1): able to induce viral reactivation in a dose dependent manner and with increased efficiency; also recorded: increased ability to induce viral reactivation in a dose dependent manner | maintenance of pSTAT5 levels (pSTAT5): maintain pSTAT5 levels in a dose dependent manner
